Measured values published in the supplement of paper PMC10849652.
The list shows a part of the results.

Amino acid sequences for entries named in this document (tags omitted). A change or cut given only in a name is not applied to a line headed by its entry.
UniProt O00488: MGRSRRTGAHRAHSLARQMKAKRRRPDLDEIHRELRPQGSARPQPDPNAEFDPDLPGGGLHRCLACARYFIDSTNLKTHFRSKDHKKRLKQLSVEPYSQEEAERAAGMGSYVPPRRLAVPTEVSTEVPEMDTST
UniProt Q5T7W0: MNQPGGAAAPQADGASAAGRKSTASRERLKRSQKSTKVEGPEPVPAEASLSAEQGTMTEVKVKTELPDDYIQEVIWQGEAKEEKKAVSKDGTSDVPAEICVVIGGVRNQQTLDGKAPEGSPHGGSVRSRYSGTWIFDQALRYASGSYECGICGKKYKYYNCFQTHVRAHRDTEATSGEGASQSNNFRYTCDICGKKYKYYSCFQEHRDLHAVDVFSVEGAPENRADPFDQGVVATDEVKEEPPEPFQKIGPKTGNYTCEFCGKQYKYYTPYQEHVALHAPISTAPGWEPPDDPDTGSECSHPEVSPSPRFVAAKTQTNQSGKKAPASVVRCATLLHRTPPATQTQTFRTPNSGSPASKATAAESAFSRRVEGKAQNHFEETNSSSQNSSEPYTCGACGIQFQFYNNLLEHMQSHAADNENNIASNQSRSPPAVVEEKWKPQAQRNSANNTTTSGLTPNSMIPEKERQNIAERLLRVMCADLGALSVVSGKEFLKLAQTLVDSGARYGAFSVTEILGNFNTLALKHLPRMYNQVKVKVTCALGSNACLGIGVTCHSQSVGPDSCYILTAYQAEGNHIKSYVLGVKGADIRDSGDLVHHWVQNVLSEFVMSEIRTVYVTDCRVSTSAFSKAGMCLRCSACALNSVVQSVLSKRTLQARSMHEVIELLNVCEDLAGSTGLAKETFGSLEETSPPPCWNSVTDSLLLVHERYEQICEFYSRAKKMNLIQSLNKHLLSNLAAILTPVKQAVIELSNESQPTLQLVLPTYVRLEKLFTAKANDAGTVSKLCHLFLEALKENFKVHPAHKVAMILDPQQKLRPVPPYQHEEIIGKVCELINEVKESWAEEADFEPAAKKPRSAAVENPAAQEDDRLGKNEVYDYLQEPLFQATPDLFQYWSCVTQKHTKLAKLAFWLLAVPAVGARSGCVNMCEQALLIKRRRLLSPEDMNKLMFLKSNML
UniProt Q969S3: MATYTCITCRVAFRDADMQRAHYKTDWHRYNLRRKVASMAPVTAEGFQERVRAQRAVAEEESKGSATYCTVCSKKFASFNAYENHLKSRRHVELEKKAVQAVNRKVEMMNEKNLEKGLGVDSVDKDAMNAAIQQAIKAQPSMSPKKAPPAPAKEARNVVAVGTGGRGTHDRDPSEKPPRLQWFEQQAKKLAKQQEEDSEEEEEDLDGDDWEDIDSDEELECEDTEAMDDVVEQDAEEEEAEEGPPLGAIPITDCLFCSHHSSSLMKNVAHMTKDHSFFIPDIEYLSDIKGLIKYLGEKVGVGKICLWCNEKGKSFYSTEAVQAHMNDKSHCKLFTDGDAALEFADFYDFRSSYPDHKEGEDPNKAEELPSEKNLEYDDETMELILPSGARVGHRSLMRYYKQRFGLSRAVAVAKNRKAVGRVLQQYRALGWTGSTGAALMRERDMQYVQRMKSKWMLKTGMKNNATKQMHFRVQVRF
UniProt Q9UEG4: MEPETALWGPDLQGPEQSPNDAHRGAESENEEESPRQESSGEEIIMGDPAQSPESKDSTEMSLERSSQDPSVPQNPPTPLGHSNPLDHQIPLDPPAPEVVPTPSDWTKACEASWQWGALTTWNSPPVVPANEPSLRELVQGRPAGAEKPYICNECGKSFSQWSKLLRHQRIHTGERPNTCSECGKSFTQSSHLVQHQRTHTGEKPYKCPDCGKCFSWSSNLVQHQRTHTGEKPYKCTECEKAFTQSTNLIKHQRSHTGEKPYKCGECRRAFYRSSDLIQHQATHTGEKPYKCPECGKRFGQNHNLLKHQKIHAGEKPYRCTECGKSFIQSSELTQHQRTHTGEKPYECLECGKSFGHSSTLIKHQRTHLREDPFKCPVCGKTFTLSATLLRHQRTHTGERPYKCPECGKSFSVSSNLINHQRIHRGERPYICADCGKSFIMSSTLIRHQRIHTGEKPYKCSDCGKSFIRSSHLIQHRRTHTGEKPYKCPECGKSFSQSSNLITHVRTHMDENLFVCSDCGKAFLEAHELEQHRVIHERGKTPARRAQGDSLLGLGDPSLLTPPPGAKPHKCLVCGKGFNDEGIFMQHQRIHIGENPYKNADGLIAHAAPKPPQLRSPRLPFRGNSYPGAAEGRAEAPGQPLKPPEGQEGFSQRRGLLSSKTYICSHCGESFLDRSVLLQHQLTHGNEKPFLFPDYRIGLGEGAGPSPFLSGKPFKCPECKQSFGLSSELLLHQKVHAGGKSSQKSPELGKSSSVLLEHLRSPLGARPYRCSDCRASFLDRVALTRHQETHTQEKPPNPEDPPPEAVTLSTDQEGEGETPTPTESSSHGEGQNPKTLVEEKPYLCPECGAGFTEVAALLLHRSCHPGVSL
UniProt Q14966: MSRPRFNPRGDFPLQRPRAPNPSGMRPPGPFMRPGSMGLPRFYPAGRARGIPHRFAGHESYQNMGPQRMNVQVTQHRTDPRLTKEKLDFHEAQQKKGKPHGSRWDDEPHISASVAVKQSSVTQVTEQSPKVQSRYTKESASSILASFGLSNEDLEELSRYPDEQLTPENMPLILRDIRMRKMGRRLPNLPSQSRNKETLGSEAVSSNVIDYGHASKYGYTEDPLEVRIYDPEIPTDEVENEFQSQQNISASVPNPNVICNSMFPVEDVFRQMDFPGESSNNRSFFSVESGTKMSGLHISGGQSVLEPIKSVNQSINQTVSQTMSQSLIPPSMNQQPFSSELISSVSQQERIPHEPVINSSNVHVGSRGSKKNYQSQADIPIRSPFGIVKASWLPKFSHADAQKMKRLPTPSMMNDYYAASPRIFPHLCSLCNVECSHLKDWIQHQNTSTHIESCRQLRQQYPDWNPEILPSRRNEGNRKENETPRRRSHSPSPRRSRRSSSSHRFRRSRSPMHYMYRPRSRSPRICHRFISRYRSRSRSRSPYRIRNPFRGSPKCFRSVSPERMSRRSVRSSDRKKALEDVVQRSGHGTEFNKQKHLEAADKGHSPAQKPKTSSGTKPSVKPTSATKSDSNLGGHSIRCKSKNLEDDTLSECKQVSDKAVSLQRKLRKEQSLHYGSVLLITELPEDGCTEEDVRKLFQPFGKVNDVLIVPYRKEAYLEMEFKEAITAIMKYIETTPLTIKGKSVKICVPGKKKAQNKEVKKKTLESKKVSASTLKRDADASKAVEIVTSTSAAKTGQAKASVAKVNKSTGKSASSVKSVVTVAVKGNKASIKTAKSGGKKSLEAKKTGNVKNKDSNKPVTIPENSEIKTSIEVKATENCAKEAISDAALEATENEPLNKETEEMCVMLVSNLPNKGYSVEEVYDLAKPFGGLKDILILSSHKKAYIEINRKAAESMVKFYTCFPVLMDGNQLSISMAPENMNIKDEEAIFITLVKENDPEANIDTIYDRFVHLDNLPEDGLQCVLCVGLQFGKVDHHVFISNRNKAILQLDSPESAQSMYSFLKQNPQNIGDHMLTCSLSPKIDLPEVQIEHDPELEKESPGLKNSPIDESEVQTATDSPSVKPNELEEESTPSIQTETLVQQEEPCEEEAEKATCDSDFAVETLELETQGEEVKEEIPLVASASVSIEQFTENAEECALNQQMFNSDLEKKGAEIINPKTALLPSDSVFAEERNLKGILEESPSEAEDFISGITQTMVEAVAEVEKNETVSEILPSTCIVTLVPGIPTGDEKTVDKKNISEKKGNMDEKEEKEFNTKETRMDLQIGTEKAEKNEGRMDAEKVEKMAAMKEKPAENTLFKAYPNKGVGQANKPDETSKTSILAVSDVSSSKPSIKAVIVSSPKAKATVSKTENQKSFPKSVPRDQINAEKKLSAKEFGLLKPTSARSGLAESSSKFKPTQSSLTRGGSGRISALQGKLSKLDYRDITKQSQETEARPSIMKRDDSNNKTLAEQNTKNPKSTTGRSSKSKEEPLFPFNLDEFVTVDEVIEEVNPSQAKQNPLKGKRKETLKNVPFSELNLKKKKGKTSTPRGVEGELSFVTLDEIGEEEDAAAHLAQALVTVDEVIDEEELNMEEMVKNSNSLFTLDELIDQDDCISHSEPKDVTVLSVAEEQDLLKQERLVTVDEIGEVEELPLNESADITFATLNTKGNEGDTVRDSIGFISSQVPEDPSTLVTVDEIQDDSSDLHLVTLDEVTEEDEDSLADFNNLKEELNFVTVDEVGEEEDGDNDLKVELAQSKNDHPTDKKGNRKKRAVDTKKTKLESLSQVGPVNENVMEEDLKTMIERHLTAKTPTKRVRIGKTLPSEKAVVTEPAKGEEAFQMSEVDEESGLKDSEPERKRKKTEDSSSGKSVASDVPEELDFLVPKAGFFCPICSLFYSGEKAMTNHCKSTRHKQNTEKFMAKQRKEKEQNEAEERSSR
UniProt Q9H582: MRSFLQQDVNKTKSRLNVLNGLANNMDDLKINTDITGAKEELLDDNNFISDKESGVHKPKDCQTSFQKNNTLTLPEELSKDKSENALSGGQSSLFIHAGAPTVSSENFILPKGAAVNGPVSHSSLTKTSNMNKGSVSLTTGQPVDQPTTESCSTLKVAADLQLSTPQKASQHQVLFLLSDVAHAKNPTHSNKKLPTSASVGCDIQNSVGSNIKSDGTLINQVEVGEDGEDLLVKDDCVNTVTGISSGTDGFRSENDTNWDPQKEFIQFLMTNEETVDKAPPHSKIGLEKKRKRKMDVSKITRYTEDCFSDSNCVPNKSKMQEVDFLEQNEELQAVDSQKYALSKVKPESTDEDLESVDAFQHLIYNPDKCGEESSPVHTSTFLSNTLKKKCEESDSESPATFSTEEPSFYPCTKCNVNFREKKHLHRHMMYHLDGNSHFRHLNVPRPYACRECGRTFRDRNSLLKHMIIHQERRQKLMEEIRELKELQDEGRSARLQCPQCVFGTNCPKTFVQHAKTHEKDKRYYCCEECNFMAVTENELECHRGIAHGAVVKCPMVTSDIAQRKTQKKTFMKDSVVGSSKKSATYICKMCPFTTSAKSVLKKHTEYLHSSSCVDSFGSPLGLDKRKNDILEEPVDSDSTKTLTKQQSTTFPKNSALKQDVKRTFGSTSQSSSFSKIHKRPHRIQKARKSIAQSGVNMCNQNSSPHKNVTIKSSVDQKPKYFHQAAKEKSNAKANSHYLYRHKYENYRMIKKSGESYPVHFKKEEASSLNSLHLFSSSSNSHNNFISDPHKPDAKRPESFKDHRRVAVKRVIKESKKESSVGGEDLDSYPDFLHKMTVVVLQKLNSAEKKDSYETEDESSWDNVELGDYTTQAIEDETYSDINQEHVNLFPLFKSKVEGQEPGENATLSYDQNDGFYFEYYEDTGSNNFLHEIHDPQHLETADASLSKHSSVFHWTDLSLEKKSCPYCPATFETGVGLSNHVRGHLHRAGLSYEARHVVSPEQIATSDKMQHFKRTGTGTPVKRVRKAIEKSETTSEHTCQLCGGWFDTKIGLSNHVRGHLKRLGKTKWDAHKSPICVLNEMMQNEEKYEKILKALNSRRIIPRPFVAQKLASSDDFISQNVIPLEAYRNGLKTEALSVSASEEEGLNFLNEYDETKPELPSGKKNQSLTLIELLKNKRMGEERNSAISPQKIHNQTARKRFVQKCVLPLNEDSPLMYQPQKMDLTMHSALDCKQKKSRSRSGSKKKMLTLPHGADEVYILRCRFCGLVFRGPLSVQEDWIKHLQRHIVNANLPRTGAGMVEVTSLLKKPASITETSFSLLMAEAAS
UniProt Q9Y5V0: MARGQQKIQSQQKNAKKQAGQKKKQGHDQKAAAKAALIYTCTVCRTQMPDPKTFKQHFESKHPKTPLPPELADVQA
UniProt Q8NDX6: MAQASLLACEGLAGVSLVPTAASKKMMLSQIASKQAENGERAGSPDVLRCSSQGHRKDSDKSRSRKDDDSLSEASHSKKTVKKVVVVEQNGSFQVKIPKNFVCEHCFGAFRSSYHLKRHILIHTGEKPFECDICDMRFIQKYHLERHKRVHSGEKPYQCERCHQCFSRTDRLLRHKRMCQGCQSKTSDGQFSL
UniProt Q9H5H4: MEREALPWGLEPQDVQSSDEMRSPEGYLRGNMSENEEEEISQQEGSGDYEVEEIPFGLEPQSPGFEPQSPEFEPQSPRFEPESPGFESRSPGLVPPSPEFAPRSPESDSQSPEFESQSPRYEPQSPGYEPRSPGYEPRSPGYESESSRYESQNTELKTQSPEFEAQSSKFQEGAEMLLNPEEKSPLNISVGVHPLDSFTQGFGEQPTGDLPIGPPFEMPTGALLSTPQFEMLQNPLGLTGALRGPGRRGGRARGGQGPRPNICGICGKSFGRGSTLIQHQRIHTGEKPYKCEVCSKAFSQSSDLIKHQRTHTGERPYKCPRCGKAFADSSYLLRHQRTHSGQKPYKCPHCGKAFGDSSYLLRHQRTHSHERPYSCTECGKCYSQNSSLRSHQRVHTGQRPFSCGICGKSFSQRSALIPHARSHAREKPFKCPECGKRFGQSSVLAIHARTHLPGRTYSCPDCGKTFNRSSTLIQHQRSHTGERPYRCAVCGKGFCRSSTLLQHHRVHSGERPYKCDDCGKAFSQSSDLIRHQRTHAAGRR

Assays:
Experiment in all cases: log2 fold change, soluble protein after heating vs DMSO (PISA); higher = thermal stabilisation; K562 cells, 10 uM, 30 min; active = over 0.2 and 3.5 SD of the protein, either way, in both replicates (recomputed)
ZNF593 = ZNF593 (UniProt O00488)
In short: (§1)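 Values are thermal stability changes relative to control samples and are taken from duplicates. They are stated as log2 fold changes. Before quantification by TMTpro 16plex LC-MS/MS with equalised channel sums, K562 cells at 2×10^6 cells/mL were treated with 10 μM compound for 30 min, heated in aliquots for 3 min across 48°C-58°C, pooled, extracted in PBS with 0.5% NP-40 at 4°C, and centrifuged at 21,000xg for 90 min to give the soluble supernatant.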

ZNF598 = ZNF598 (UniProt Q86UK7)
In short: as §1

ZNF609 = ZNF609 (UniProt O15014)
In short: as §1

ZNF618 = ZNF618 (UniProt Q5T7W0)
In short: as §1

ZNF618 isoform 2 = ZNF618 isoform 2 (UniProt Q5T7W0)
In short: as §1

ZNF622 = ZNF622 (UniProt Q969S3)
In short: as §1

ZNF629 = ZNF629 (UniProt Q9UEG4)
In short: as §1

ZNF638 = ZNF638 (UniProt Q14966)
In short: as §1

ZNF644 = ZNF644 (UniProt Q9H582)
In short: as §1

ZNF691 = ZNF691 (UniProt Q5VV52)
In short: as §1

ZNF706 = ZNF706 (UniProt Q9Y5V0)
In short: as §1

ZNF74 isoform 5 = ZNF74 isoform 5 (UniProt Q16587)
In short: as §1

ZNF740 = ZNF740 (UniProt Q8NDX6)
In short: as §1

ZNF768 = ZNF768 (UniProt Q9H5H4)
In short: as §1

ZNF639 = ZNF639 (UniProt Q9UID6)
In short: as §1

ZNF672 = ZNF672 (UniProt Q499Z4)
In short: as §1

ZNF696 = ZNF696 (UniProt Q9H7X3)
In short: as §1

Measured: log2 fold change

CC(C)(O)CC(=O)NCCn1ccc2ncnc(Nc3ccc(Oc4cccc(C(F)(F)F)c4)c(Cl)c3)c21
inactive: ZNF593 = 0.132 | ZNF598 = -0.093 | ZNF609 = 0.101 | ZNF618 = -0.181 | ZNF618 isoform 2 = -0.018 | ZNF622 = -0.078 | ZNF629 = 0.054 | ZNF638 = -0.045 | ZNF644 = -0.133 | ZNF691 = 0.058 | ZNF706 = 0.009 | ZNF74 isoform 5 = -0.097 | ZNF740 = 0.06 | ZNF768 = 0.088

c1cc(OCCN2CCCCC2)cc(-c2n[nH]c3ccc(-c4nnc[nH]4)cc23)c1
inactive: ZNF593 = -0.119 | ZNF598 = -0.087 | ZNF609 = -0.003 | ZNF618 = -0.005 | ZNF618 isoform 2 = -0.18 | ZNF622 = 0.092 | ZNF629 = -0.116 | ZNF638 = 0 | ZNF639 = 0.04 | ZNF672 = -0.12 | ZNF691 = -0.074 | ZNF706 = -0.023 | ZNF74 isoform 5 = 0.138 | ZNF740 = 0.079 | ZNF768 = -0.285

CON(C)C(=O)N1N=C(c2cc(F)ccc2F)S[C@@]1(CCCN)c1ccccc1 [filanesib]
inactive: ZNF593 = 0.287 | ZNF598 = 0.033 | ZNF609 = 0.049 | ZNF618 = -0.024 | ZNF618 isoform 2 = 0.135 | ZNF622 = -0.101 | ZNF629 = 0.243 | ZNF638 = 0.086 | ZNF639 = -0.016 | ZNF644 = 0.015 | ZNF672 = -0.248 | ZNF691 = 0.073 | ZNF696 = 0.387 | ZNF706 = 0.02 | ZNF74 isoform 5 = -0.029 | ZNF768 = 0.294

NCC(=O)Nc1ccc(-n2nc(C(F)(F)F)cc2-c2ccc3c(ccc4ccccc43)c2)cc1
inactive: ZNF593 = 0.123 | ZNF598 = -0.069 | ZNF609 = -0.076 | ZNF618 = 0.019 | ZNF618 isoform 2 = 0.16 | ZNF622 = -0.016 | ZNF629 = 0.121 | ZNF638 = 0.101 | ZNF639 = 0 | ZNF644 = 0.052 | ZNF672 = 0.114 | ZNF691 = 0.003 | ZNF706 = 0.017 | ZNF74 isoform 5 = -0.228 | ZNF740 = -0.137 | ZNF768 = 0.312

C#Cc1cccc(Nc2ncnc3cc(OCCOC)c(OCCOC)cc23)c1 [erlotinib]
inactive: ZNF593 = -0.213 | ZNF598 = 0.105 | ZNF609 = 0.03 | ZNF618 = 0.021 | ZNF618 isoform 2 = -0.189 | ZNF622 = 0.056 | ZNF629 = -0.27 | ZNF638 = 0.049 | ZNF672 = 0.098 | ZNF691 = -0.046 | ZNF706 = 0.047 | ZNF74 isoform 5 = -0.019 | ZNF768 = -0.178

CCCCN(Cc1ccc(C(=O)NO)cc1)C(=O)Nc1ccccc1 [Nexturastat A]
active: ZNF609 = 0.475
inactive: ZNF593 = 0.151 | ZNF598 = 0.044 | ZNF618 = -0.03 | ZNF618 isoform 2 = 0.15 | ZNF622 = -0.086 | ZNF629 = 0.263 | ZNF638 = 0.168 | ZNF644 = 0.237 | ZNF691 = 0.153 | ZNF706 = 0.037 | ZNF74 isoform 5 = -0.09 | ZNF740 = 0.076 | ZNF768 = 0.091

CN1CCN(c2nc(C3=C(c4c[nH]c5ccccc45)C(=O)NC3=O)c3ccccc3n2)CC1 [sotrastaurin]
inactive: ZNF593 = 0.047 | ZNF598 = -0.065 | ZNF609 = 0.016 | ZNF618 = 0.059 | ZNF618 isoform 2 = -0.029 | ZNF622 = 0.018 | ZNF629 = 0 | ZNF638 = 0.022 | ZNF639 = 0.164 | ZNF644 = -0.103 | ZNF672 = 0.025 | ZNF691 = 0.075 | ZNF696 = -0.361 | ZNF706 = 0.043 | ZNF74 isoform 5 = 0 | ZNF768 = -0.023

CS(=O)(=O)c1ccc(-c2cnc(N)c(C(=O)Nc3ccccc3)n2)cc1
inactive: ZNF593 = -0.029 | ZNF598 = -0.008 | ZNF609 = 0.021 | ZNF618 = -0.05 | ZNF618 isoform 2 = -0.082 | ZNF622 = 0.066 | ZNF629 = -0.019 | ZNF638 = -0.033 | ZNF639 = -0.075 | ZNF644 = -0.026 | ZNF672 = -0.061 | ZNF691 = -0.008 | ZNF696 = 0.038 | ZNF706 = -0.014 | ZNF74 isoform 5 = -0.05 | ZNF768 = -0.166

Cc1ccc2c(=O)c3ccccc3n(CCCN)c2c1C
active: ZNF622 = -0.285
inactive: ZNF593 = -0.361 | ZNF598 = 0.166 | ZNF609 = 0.205 | ZNF618 = 0.033 | ZNF618 isoform 2 = -0.113 | ZNF629 = -0.325 | ZNF638 = 0.004 | ZNF639 = -0.121 | ZNF672 = -0.154 | ZNF691 = 0.201 | ZNF706 = -0.035 | ZNF768 = -0.268

O=C1NC(=O)C(c2cnc3ccccn23)=C1c1cn2c3c(cc(F)cc13)CN(C(=O)N1CCCCC1)CC2
active: ZNF609 = -0.571
inactive: ZNF593 = 0.08 | ZNF598 = -0.03 | ZNF618 = -0.063 | ZNF618 isoform 2 = -0.012 | ZNF622 = 0.043 | ZNF629 = 0.167 | ZNF638 = -0.044 | ZNF644 = -0.225 | ZNF691 = 0.021 | ZNF706 = -0.056 | ZNF74 isoform 5 = 0.053 | ZNF740 = 0.066 | ZNF768 = 0.188

CCCS(=O)(=O)Nc1ccc(F)c(C(=O)c2c[nH]c3ncc(-c4ccc(Cl)cc4)cc23)c1F [vemurafenib]
inactive: ZNF593 = -0.09 | ZNF598 = 0.028 | ZNF609 = 0.025 | ZNF618 = -0.094 | ZNF618 isoform 2 = 0.249 | ZNF622 = 0.012 | ZNF629 = -0.111 | ZNF638 = -0.079 | ZNF639 = 0.195 | ZNF644 = 0.033 | ZNF672 = -0.001 | ZNF691 = -0.064 | ZNF706 = 0.006 | ZNF74 isoform 5 = 0.185 | ZNF740 = -0.063 | ZNF768 = -0.078

CNCc1ccc(-c2[nH]c3cc(F)cc4c3c2CCNC4=O)cc1 [rucaparib]
inactive: ZNF593 = 0.106 | ZNF598 = 0.135 | ZNF609 = -0.034 | ZNF618 = 0.012 | ZNF618 isoform 2 = 0.466 | ZNF622 = -0.194 | ZNF629 = 0.213 | ZNF638 = -0.012 | ZNF639 = 0.014 | ZNF672 = 0.091 | ZNF691 = 0.126 | ZNF706 = 0.034 | ZNF74 isoform 5 = 0.017 | ZNF740 = -0.044 | ZNF768 = 0.264

CC[C@H](C)[C@H](NC(=O)[C@H]([C@@H](C)CC)N(C)C(C)=O)C(=O)N[C@H](C(=O)N[C@@H](CC(C)C)C(=O)[C@@]1(C)CO1)[C@@H](C)O [epoxomicin]
inactive: ZNF593 = -0.15 | ZNF598 = -0.005 | ZNF609 = -0.271 | ZNF618 = 0.098 | ZNF618 isoform 2 = -0.047 | ZNF622 = 0.056 | ZNF629 = -0.162 | ZNF638 = 0.084 | ZNF644 = -0.146 | ZNF691 = -0.002 | ZNF706 = 0.011 | ZNF74 isoform 5 = 0.091 | ZNF740 = 0.148 | ZNF768 = -0.233

COC(=O)[C@H](CCSC)NC(=O)c1ccc(NC[C@@H](N)CS)cc1-c1ccccc1
inactive: ZNF593 = -0.003 | ZNF598 = -0.016 | ZNF609 = 0.019 | ZNF618 = 0.063 | ZNF618 isoform 2 = 0.062 | ZNF622 = 0.005 | ZNF629 = 0.026 | ZNF638 = 0.082 | ZNF639 = -0.166 | ZNF644 = -0.067 | ZNF672 = -0.014 | ZNF691 = -0.054 | ZNF706 = 0.003 | ZNF74 isoform 5 = 0.095 | ZNF740 = 0.067 | ZNF768 = -0.011

CC(C)c1cnn2c(NCc3ccccc3)cc(NCCCCCCN)nc12
inactive: ZNF593 = -0.092 | ZNF598 = -0.043 | ZNF609 = -0.042 | ZNF618 = 0.031 | ZNF618 isoform 2 = -0.095 | ZNF622 = -0.011 | ZNF629 = 0.116 | ZNF638 = -0.124 | ZNF672 = -0.166 | ZNF691 = 0.072 | ZNF706 = 0.073 | ZNF74 isoform 5 = 0.126 | ZNF768 = 0.15

Already shown: two of the compounds above.
CNCc1ccc(-c2[nH]c3cc(F)cc4c3c2CCNC4=O)cc1 [rucaparib]
inactive: ZNF593 = 0.106 | ZNF598 = 0.135 | ZNF609 = -0.034 | ZNF618 = 0.012 | ZNF618 isoform 2 = 0.466 | ZNF622 = -0.194 | ZNF629 = 0.213 | ZNF638 = -0.012 | ZNF639 = 0.014 | ZNF672 = 0.091 | ZNF691 = 0.126 | ZNF706 = 0.034 | ZNF74 isoform 5 = 0.017 | ZNF740 = -0.044 | ZNF768 = 0.264

CC[C@H](C)[C@H](NC(=O)[C@H]([C@@H](C)CC)N(C)C(C)=O)C(=O)N[C@H](C(=O)N[C@@H](CC(C)C)C(=O)[C@@]1(C)CO1)[C@@H](C)O [epoxomicin]
inactive: ZNF593 = -0.15 | ZNF598 = -0.005 | ZNF609 = -0.271 | ZNF618 = 0.098 | ZNF618 isoform 2 = -0.047 | ZNF622 = 0.056 | ZNF629 = -0.162 | ZNF638 = 0.084 | ZNF644 = -0.146 | ZNF691 = -0.002 | ZNF706 = 0.011 | ZNF74 isoform 5 = 0.091 | ZNF740 = 0.148 | ZNF768 = -0.233

More structures follow.

CNC(=O)c1ccc(Nc2ncc(C(F)(F)F)c(NCc3nccnc3N(C)S(C)(=O)=O)n2)cc1 [defactinib]
inactive: ZNF593 = 0.23 | ZNF598 = -0.057 | ZNF609 = -0.046 | ZNF618 = -0.044 | ZNF618 isoform 2 = 0.099 | ZNF622 = 0.057 | ZNF629 = 0.232 | ZNF638 = -0.14 | ZNF639 = -0.371 | ZNF644 = -0.044 | ZNF672 = 0.136 | ZNF691 = 0.036 | ZNF706 = 0.005 | ZNF74 isoform 5 = -0.27 | ZNF740 = -0.183 | ZNF768 = 0.26

Nc1ccccc1NC(=O)c1ccc(CNC(=O)OCc2cccnc2)cc1 [entinostat]
inactive: ZNF593 = -0.1 | ZNF598 = 0.004 | ZNF609 = -0.061 | ZNF618 = 0.007 | ZNF618 isoform 2 = -0.104 | ZNF622 = -0.007 | ZNF629 = -0.03 | ZNF638 = -0.022 | ZNF639 = -0.007 | ZNF644 = -0.22 | ZNF672 = -0.03 | ZNF691 = -0.084 | ZNF696 = -0.022 | ZNF706 = -0.049 | ZNF74 isoform 5 = 0.202 | ZNF768 = -0.005

O=C(CCCCCCNC(=O)c1cnc(N(c2ccccc2)c2ccccc2Cl)nc1)NO [citarinostat]
inactive: ZNF593 = -0.077 | ZNF598 = 0.039 | ZNF609 = 0.083 | ZNF618 = 0.041 | ZNF618 isoform 2 = 0.071 | ZNF622 = -0.011 | ZNF629 = -0.117 | ZNF638 = 0.021 | ZNF639 = 0.152 | ZNF672 = -0.047 | ZNF691 = 0.003 | ZNF706 = -0.016 | ZNF74 isoform 5 = 0.011 | ZNF740 = -0.008 | ZNF768 = -0.032
